From PMC11354247
Results are given in words; binding and its absence hold for the method and conditions named. In cells and extracts the contact can be indirect. Some results given as binding are weak or reduced against the parent protein; the word gives no strength.

Sequences of proteins named here, by UniProt entry; tags and fusion partners are left off. A change or cut given only in a name is not applied to a line headed by its entry.
UniProt P61169: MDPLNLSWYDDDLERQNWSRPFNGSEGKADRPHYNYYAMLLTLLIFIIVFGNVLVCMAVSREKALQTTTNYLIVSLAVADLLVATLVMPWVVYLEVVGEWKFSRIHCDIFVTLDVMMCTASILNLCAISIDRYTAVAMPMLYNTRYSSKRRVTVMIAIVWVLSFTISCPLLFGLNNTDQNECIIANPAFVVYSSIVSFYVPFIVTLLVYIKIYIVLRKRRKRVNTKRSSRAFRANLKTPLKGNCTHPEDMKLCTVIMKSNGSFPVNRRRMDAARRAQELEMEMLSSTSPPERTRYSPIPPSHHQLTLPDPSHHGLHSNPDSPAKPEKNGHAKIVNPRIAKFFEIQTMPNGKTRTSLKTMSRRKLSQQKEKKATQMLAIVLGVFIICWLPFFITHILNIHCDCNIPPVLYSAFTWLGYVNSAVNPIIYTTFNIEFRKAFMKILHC
UniProt P70536: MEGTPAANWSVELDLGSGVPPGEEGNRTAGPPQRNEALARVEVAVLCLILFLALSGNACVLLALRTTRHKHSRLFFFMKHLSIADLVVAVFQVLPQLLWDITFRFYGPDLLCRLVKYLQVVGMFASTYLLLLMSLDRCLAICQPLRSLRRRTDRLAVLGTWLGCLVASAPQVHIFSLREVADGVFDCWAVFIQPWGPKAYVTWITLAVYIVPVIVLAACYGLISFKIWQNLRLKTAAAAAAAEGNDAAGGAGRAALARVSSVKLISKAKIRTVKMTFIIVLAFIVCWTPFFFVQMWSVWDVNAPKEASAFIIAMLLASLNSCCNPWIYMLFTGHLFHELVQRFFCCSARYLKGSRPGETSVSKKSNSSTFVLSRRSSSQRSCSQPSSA
UniProt P30543: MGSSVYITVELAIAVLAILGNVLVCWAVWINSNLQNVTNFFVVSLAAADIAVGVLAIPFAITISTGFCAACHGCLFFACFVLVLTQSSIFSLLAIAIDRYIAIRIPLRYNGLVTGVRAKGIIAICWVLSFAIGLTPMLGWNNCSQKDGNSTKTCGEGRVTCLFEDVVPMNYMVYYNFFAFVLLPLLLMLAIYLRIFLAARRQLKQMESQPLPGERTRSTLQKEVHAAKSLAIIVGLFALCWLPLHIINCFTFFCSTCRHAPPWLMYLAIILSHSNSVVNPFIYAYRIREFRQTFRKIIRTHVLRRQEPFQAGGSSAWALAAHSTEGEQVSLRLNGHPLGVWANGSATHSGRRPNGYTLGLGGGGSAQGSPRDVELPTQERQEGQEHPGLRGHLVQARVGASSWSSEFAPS

Columns and labels:
[1] = target: dopamine D2 receptor (rat (endogenous in striatal gliosomes and hemibrain slices)) (UniProt P61169); assay: co-IP; Triton X-100-soluble membrane proteins (300 µg) of freshly isolated rat striatal gliosomes; precleared, incubated overnight at 4 °C with 1 µg of anti-OTR, anti-A2A or anti-D2 antibody, protein G sepharose; 50 mM sodium borate, 0.1 mM EDTA, pH 7.5, 0.2% Triton-X100; Western blot
[2] = target: oxytocin receptor (rat (endogenous in striatal gliosomes and hemibrain slices)) (UniProt P70536); assay: as above
[3] = target: adenosine A2A receptor (rat (endogenous in striatal gliosomes)) (UniProt P30543); assay: as above
[4] = target: oxytocin receptor (rat (endogenous in striatal gliosomes and hemibrain slices)) (UniProt P70536); assay: proximity ligation; in situ PLA (Duolink) on rat hemibrain slices with anti-D2 PLUS and anti-OTR MINUS conjugated primary antibodies, overnight at 4 °C; confocal microscopy; GFAP- and ezrin-positive striatal astrocytes

Molecule	binding [1]	binding [2]	binding [3]	binding [4]
adenosine A2A receptor (from UniProt P30543 1-410)	binds	binds	–	–
oxytocin receptor (from UniProt P70536 1-388)	binds	–	binds	–
dopamine D2 receptor (from UniProt P61169 1-444)	–	binds	binds	binds
flotillin-1 (protein, UniProt Q9Z1E1 1-428) MFFTCGPNEAMVVSGFCRSPPVMVAGGRVFVLPCIQQIQRISLNTLTLNVKSEKVYTRHGVPISVTGIAQVKIQGQNKEMLAAACQMFLGKTEAEIAHIALETLEGHQRAIMAHMTVEEIYKDRQKFSEQVFKVASSDLVNMGISVVSYTLKDIHDDQDYLHSLGKARTAQVQKDARIGEAEAKRDAGIREAKAKQEKVSAQCLSEIEMAKAQRDYELKKATYDIEVNTRRAQADLAYQLQVAKTKQQIEEQRVQVQVVERAQQVAVQEQEIARREKELEARVRKPAEAERYRLERLAEAEKAQLIMQAEAEAESVRMRGEAEAFAVGARARAEAEQMAKKAEAFQMYQEAAQLDMLLEKLPQVAEEISGPLTSANKITLVSSGSGTMGAAKVTGEVLDILSRLPESVERLTGVSISQVNHNKPLRTA	binds	binds	binds	–
